In PubChem BioAssay AID248 (DTP/NCI, 2004):
The list is a part of this screen's results and no random one: it gathers tests that were run many times, whatever their T/C, doses with no T/C, and many T/C values between a quarter and a half above the control. Further doses and runs are listed elsewhere. T/C is the treated group as % of the vehicle group. Some doses have a count of surviving animals in place of a T/C: the source files T/C as zero there, which appears to mark a toxic dose or a test without result, not a measured value. Some survivor counts are full or nearly so, which does not show that the dose was tolerated: survival well below the control is almost never listed, so the zero probably covers shortened survival too. Counts of survivors are from the toxicity check (mostly the fifth day) where no day follows; animals may have died later. Schedules are NCI's codes, read here as Q, the interval in days (D) or hours (H), X, the number of doses. Some entries were tested several times; the results are listed from low to high. Some schedules carry Z or #; the key to these is not given. Where survival is the endpoint, this PubChem deposit counts one and a half times the control or more as active, and values a quarter to a half above the control carry no call in these data; other NCI protocols may use other cut-offs. Some T/C values carry the count of animals alive at the toxicity check (mostly the fifth day); without a count, all were alive then.

Tested on: L1210 leukemia ip in BDF1 mice, survival T/C
Assay: NCI In Vivo Anticancer Drug Screen. Data for tumor model L1210 Leukemia (intraperitoneal) in B6D2F1 (BDF1) mice
Conditions: T/C endpoint: mean survival time, higher T/C = longer survival
[1] = dose: 200.0 mg/kg/injection, schedule: Q01DX001 (ip), vehicle: saline
[2] = dose: 400.0 mg/kg/injection, schedule: Q01DX001 (ip), vehicle: saline
[3] = dose: 200.0 mg/kg/injection, schedule: Q01DX009 (ip), vehicle: saline
[4] = dose: 400.0 mg/kg/injection, schedule: Q04DX003 (ip), vehicle: saline with Tween-80
[5] = dose: 400.0 mg/kg/injection, schedule: Q01DX009 (ip), vehicle: saline with Tween-80
[6] = dose: 100.0 mg/kg/injection, schedule: Q01DX009 (ip), vehicle: saline
[7] = dose: 400.0 mg/kg/injection, schedule: Q01DX009 (ip), vehicle: saline
[8] = dose: 400.0 mg/kg/injection, schedule: Q04DX003 (ip), vehicle: saline
[9] = dose: 200.0 mg/kg/injection, schedule: Q01DX009 (ip), vehicle: saline with Tween-80
[10] = dose: 150.0 mg/kg/injection, schedule: Q01DX001 (ip), vehicle: other
[11] = dose: 300.0 mg/kg/injection, schedule: Q01DX001 (ip), vehicle: other
[12] = dose: 100.0 mg/kg/injection, schedule: Q04DX003 (ip), vehicle: saline
[13] = dose: 200.0 mg/kg/injection, schedule: Q04DX003 (ip), vehicle: saline
[14] = dose: 400.0 mg/kg/injection, schedule: Q01DX009 (ip), vehicle: Klucel (hydroxypropylcellulose) (HPC)
[15] = dose: 100.0 mg/kg/injection, schedule: Q01DX009 (ip), vehicle: saline with Tween-80

## C/C(=N\[N+](C)(C)C)c1cccc(C)n1
[1]
  survivor count: 1 of 6
[2]
  survivor count: 0 of 6

## COC(=O)CC(=O)C(Cl)C(=O)OC (stereo not given)
[3]
  survivor count: 0 of 3

## COc1ccc(/C=N/NC(=O)C[n+]2ccccc2)c(OC)c1
dose: 200.0 mg/kg/injection, schedule: Q04DX003 (ip), vehicle: saline with Tween-80
  survivor count: 2 of 6
[4]
  survivor count: 0 of 6

## S=C(N=Nc1ccccc1)NNc1ccccc1
dose: 150.0 mg/kg/injection, schedule: Q01DX009 (ip), vehicle: saline with Tween-80
  survivor count: 4 of 6
dose: 150.0 mg/kg/injection, schedule: Q01DX Z (ip), vehicle: carboxymethylcellulose (CMC)
  survivor count: 5 of 6
dose: 300.0 mg/kg/injection, schedule: Q01DX Z (ip), vehicle: carboxymethylcellulose (CMC)
  survivor count: 0 of 6
dose: 400.0 mg/kg/injection, schedule: Q01DX001 (ip), vehicle: carboxymethylcellulose (CMC)
  survivor count: 0 of 6
dose: 800.0 mg/kg/injection, schedule: Q01DX001 (ip), vehicle: carboxymethylcellulose (CMC)
  survivor count: 3 of 6

## CCC(=O)Nc1cccc(OC(=O)NC(C)C)c1
[5]
  survivor count: 5 of 6

## OCC1=CCC2c3[nH]c4ccccc4c3CCN2C1 (stereo not given)
[4]
  survivor count: 2 of 6

## CC[n+]1c(COCCOc2ccccc2)sc2cc3c(cc21)OCO3
[1]
  survivor count: 2 of 6
[2]
  survivor count: 1 of 6

## COc1ccc(C(O)CN)cc1 (stereo not given)
[6]
  survivor count: 5 of 6
[7]
  survivor count: 4 of 6
[8]
  survivor count: 3 of 6

## COC1=C(OC)C(=O)C(Sc2ccc3ccccc3c2)=CC1=O
[9]
  survivor count: 1 of 6

## C=CCN(CC=C)P(N(CC=C)CC=C)N(CC=C)CC=C
dose: 300.0 mg/kg/injection, schedule: Q01DX009 (ip), vehicle: saline
  survivor count: 5 of 6

## CC[CH2][Sn]([CH2]CC)([CH2]CC)[O]C(=O)CN1CCC[CH]([Hg][c]2cccnc2)C1 (stereo not given)
[2]
  survivor count: 0 of 6

## CN(C)c1ccc(/C=N/NC(N)=S)nc1
dose: 8.0 mg/kg/injection, schedule: Q03HX032 (ip), vehicle: saline with Tween-80
  T/C: 131 % of control
dose: 12.0 mg/kg/injection, schedule: Q03HX032 (ip), vehicle: saline with Tween-80
  T/C: 128 % of control
dose: 27.0 mg/kg/injection, schedule: Q03HX032 (ip), vehicle: saline with Tween-80
  T/C: 131 % of control
dose: 29.0 mg/kg/injection, schedule: Q04DX003 (ip), vehicle: saline with Tween-80
  T/C: 129 % of control
dose: 100.0 mg/kg/injection, schedule: Q04DX003 (ip), vehicle: saline with Tween-80
  T/C: 129 and 146 % of control
dose: 150.0 mg/kg/injection, schedule: Q04DX003 (ip), vehicle: saline with Tween-80
  survivor count: 4 of 6
[4]
  survivor count: 1 of 6

## OCCCCN=Cc1ccccc1O.OCCCCN=Cc1ccccc1O.[Cu]
[10]
  survivor count: 1 of 6
[11]
  survivor count: 1 of 6

## ClC1CCC(Cl)C2CCC3C(Cl)CCC1[S+]23 (stereo not given)
dose: 75.0 mg/kg/injection, schedule: Q01DX009 (ip), vehicle: Klucel (hydroxypropylcellulose) (HPC)
  survivor count: 0 of 6
dose: 150.0 mg/kg/injection, schedule: Q01DX009 (ip), vehicle: Klucel (hydroxypropylcellulose) (HPC)
  survivor count: 0 of 6
dose: 300.0 mg/kg/injection, schedule: Q01DX009 (ip), vehicle: Klucel (hydroxypropylcellulose) (HPC)
  survivor count: 0 of 6

## C=CC#N
[6]
  survivor count: 6 of 6
[12]
  survivor count: 6 of 6
[3]
  survivor count: 6 of 6
[13]
  survivor count: 1 of 6
[7]
  survivor count: 6 of 6
dose: 800.0 mg/kg/injection, schedule: Q01DX009 (ip), vehicle: saline
  survivor count: 3 of 6

## CN(Cc1ccccc1)C(=O)/C=C/c1ccccc1
[14]
  survivor count: 1 of 6

## NC1C(=O)NC(=O)NC1=S (stereo not given)
dose: 67.0 mg/kg/injection, schedule: Q01DX Z (ip), vehicle: methylcellulose (MC)
  survivor count: 1 of 6
dose: 100.0 mg/kg/injection, schedule: Q01DX Z (ip), vehicle: methylcellulose (MC)
  survivor count: 1 of 6

## O=Cc1ccc2cccnc2c1O
[2]
  survivor count: 1 of 4

## O=[N+]([O-])c1ccc2c(c1)-c1ccccc1C1=NCCN12
dose: 200.0 mg/kg/injection, schedule: Q04DX003 (ip), vehicle: Klucel (hydroxypropylcellulose) (HPC)
  survivor count: 5 of 6
dose: 400.0 mg/kg/injection, schedule: Q04DX003 (ip), vehicle: Klucel (hydroxypropylcellulose) (HPC)
  survivor count: 0 of 6

## Cc1[nH]nc(-c2cccnc2)c1N=NN1CCC(C(N)=O)CC1
[10]
  survivor count: 3 of 6
[11]
  survivor count: 2 of 6

## C/C(CC(=O)Nc1ccc(Cc2ccc(Cl)cc2)cc1)=N/Nc1ccc([N+](=O)[O-])cc1[N+](=O)[O-]
[2]
  survivor count: 1 of 4

## COc1cc(C=O)ccc1OC(=O)Nc1cc(C)ccc1C
dose: 100.0 mg/kg/injection, schedule: Q01DX001 (ip), vehicle: saline with Tween-80
  survivor count: 6 of 6
[15]
  T/C: 87 [4 of 6 alive], 92, 107 % of control
  survivor count: 3 of 3
[9]
  survivor count: 4 of 6 and 3 of 3
dose: 400.0 mg/kg/injection, schedule: Q01DX001 (ip), vehicle: saline with Tween-80
  survivor count: 0 of 6
[5]
  survivor count: 0 of 3 and 0 of 6

## Nc1nc(N)c(-c2ccc(Cl)c(Cl)c2)c(COc2ccc(NC(=O)c3ccc(S(=O)(=O)F)cc3)cc2Cl)n1
dose: 200.0 mg/kg/injection, schedule: Q01DX001 (ip), vehicle: Klucel (hydroxypropylcellulose) (HPC)
  survivor count: 6 of 6

## OCCN1CCN(CC/C=C2/c3ccccc3Sc3ccc(C(F)(F)F)cc32)CC1
dose: 6.25 mg/kg/injection, schedule: Q03HX024 (ip), vehicle: saline
  survivor count: 4 of 6
dose: 12.5 mg/kg/injection, schedule: Q03HX024 (ip), vehicle: saline
  survivor count: 1 of 6
dose: 16.0 mg/kg/injection, schedule: Q01DX009 (ip), vehicle: saline
  survivor count: 5 of 6
dose: 20.0 mg/kg/injection, schedule: Q04DX003 (ip), vehicle: saline
  T/C: 126 % of control [5 of 6 alive]
dose: 25.0 mg/kg/injection, schedule: Q04DX003 (ip), vehicle: saline
  T/C: 142 and 146 % of control
dose: 32.0 mg/kg/injection, schedule: Q01DX009 (ip), vehicle: saline
  survivor count: 0 of 6
dose: 40.0 mg/kg/injection, schedule: Q04DX003 (ip), vehicle: saline
  T/C: 146 % of control
dose: 50.0 mg/kg/injection, schedule: Q04DX003 (ip), vehicle: saline
  survivor count: 3 of 4
dose: 75.0 mg/kg/injection, schedule: Q01DX001 (ip), vehicle: saline
  survivor count: 2 of 6
dose: 80.0 mg/kg/injection, schedule: Q04DX003 (ip), vehicle: saline
  survivor count: 4 of 6
[12]
  survivor count: 1 of 4
dose: 150.0 mg/kg/injection, schedule: Q01DX001 (ip), vehicle: saline
  survivor count: 1 of 6
[13]
  survivor count: 0 of 4
dose: 300.0 mg/kg/injection, schedule: Q01DX001 (ip), vehicle: saline
  survivor count: 0 of 6
[8]
  survivor count: 0 of 4

## CC1(C)OC2OC(COS(C)(=O)=O)C(O)C2O1 (stereo not given)
dose: 200.0 mg/kg/injection, schedule: Q01DX009 (ip), vehicle: Klucel (hydroxypropylcellulose) (HPC)
  survivor count: 6 of 6
[14]
  survivor count: 6 of 6

## c1ccc2cc(SCCCN3CCOCC3)ccc2c1
dose: 400.0 mg/kg/injection, schedule: Q01DX009 (ip), vehicle: saline sonified
  survivor count: 1 of 6

## CC(=O)c1cccc(NC(=O)N2CCN(c3ccccc3)CC2)c1
[5]
  survivor count: 3 of 6

## Cc1ccc2[nH]c(O)c(N=Nc3ccccc3[N+](=O)[O-])c2c1
[2]
  survivor count: 6 of 6

## CCCCS(=O)CC(O)(c1ccccc1)c1ccccc1 (stereo not given)
dose: 400.0 mg/kg/injection, schedule: Q03DX002 (ip), vehicle: saline with Tween-80
  survivor count: 1 of 3
